Measured values published in PubChem BioAssay AID540256 (National Center for Advancing Translational Sciences (NCATS), 2011).
Among all 300,000 compounds or so, about 3,700 (1.2%) were called active. The shares of active, inactive and inconclusive entries below differ from those in the screen. Calls follow the shape of the full dose curve; tested in HEK293 cells. Potencies of inconclusive entries are doubtful fits and often do not repeat.
% is scaled to controls: 0 for no effect and ±100 for the full control effect; potency is read from the fitted curve at half-maximal effect.

Experiment: qHTS for Inhibitors of binding or entry into cells for Lassa Virus; also: nearly all actives have a fitted effect of over 50% in size
Settings: Lassa virus pseudotype entry inhibition, cell reporter; activity change, negative = inhibition: at 37.9 µM (top of the series) unless noted
For `Nc1nc2ccccc2n1C(=O)c1cccs1`, the Potency was inconclusive: 11.2 µM [inhibitor, single point].
In the case of `CNc1cccnc1C=NNC(N)=S`, the Potency is reported as active: 0.631 µM.
With `O=C(NN=C1CCCCCC1)c1cccs1` the “activity change, negative = inhibition” value was inactive: 5.52% [at 46.1 µM].
For `CCOC(=O)N1CCc2c(sc(NCc3ccc(N(CC)CC)cc3)c2C(=O)Nc2cc(OC)ccc2OC)C1`, the “activity change, negative = inhibition” value was inactive: 2.66% [at 46.1 µM].
For `CCCOc1c(OC)cccc1C1CC(=O)Nc2cc3c(cc21)OCCO3` (configuration not stated), the Potency was inconclusive: 35.5 µM [inhibitor, single point].
For `Cc1ccc2nc(-c3cccnc3)c(NC3CCCCC3)n2c1`, the Potency was inconclusive: 8.91 µM [activator, partial curve, poor fit].
In the case of `CCCC(C(=O)NC1=NCCS1)c1ccccc1` (configuration not stated), the Potency is reported as inconclusive: 6.31 µM [inhibitor, single point].
With `O=C(COc1nncc2ccccc12)Nc1c(F)c(F)c(F)c(F)c1F` the “activity change, negative = inhibition” value was inactive: -27%.
For `Cc1ccc(-n2c(=O)c3ccc(C(=O)NCc4ccco4)cc3n(CC(=O)Nc3ccc(C)c(F)c3)c2=O)cc1`, the Potency was inconclusive: 2.82 µM [inhibitor, partial curve, poor fit].
With `CCN(C(C)=O)c1nnc(CSc2nc3ccccc3s2)s1` the Potency was inconclusive: 29.1 µM [inhibitor, single point].
For `COc1ccc(CNC(=O)c2ccc3c(c2)nc2n3CCCCC2)cc1`, the Potency was inconclusive: 35.5 µM [activator, partial curve, poor fit].
With `Cc1c(NC(=O)CN2C(=O)NC(C)(c3ccccc3)C2=O)c(=O)n(-c2ccccc2)n1C` (configuration not stated) the Potency was inconclusive: 0.891 µM [inhibitor, single point].
In the case of `O=C(Nc1cccc(Cl)c1)N1CC2CCCN2c2ccccc21` (configuration not stated), the Potency is reported as inconclusive: 2.51 µM [activator, single point].
In the case of `CC1(C)CC(=O)C2=C(C1)N(c1ccc(F)cc1)C(N)=C(C#N)C2c1cccs1` (configuration not stated), the Potency is reported as inconclusive: 11.2 µM [inhibitor, partial curve, poor fit].
With `CCOc1ccc(NC(=O)Cn2c(=O)n(CCCCC(=O)NCCc3ccc(Cl)cc3)c(=O)c3ccccc32)cc1` the Potency was inconclusive: 2.82 µM [inhibitor, partial curve, poor fit].
With `CCOc1ccc(C(=O)Nc2ccc3oc(-c4ccc(C)cc4C)nc3c2)cc1Br` the “activity change, negative = inhibition” value was inactive: 24.7% [at 46.1 µM].
For `CCOc1ccccc1NC(=O)c1c2c(nc3ccccc13)C(=O)N(C1CCCCC1)C2`, the Potency was inconclusive: 35.5 µM [inhibitor, single point].
For `COc1ccc(-c2nc3n(n2)C(c2ccccc2OC)C(C(=O)Nc2cccnc2)=C(C)N3)cc1` (configuration not stated), the Potency was inconclusive: 35.5 µM [activator, single point].
With `COCCCn1c(=N)c(C(=O)NC2CCCC2)cc2c(=O)n3cccc(C)c3nc21` the Potency was inconclusive: 3.16 µM [inhibitor, single point].
In the case of `CCCC/C(C)=N/NC(=O)CN(c1ccc(Br)cc1)S(=O)(=O)c1ccccc1`, the “activity change, negative = inhibition” value is reported as inactive: 1.61%.
For `CCCCn1c(CN(Cc2ccccc2)Cc2ccccc2)nc2c1c(=O)n(C)c(=O)n2C`, the Potency was inconclusive: 3.55 µM [inhibitor, single point].
For `COc1ccc2c(c1OC)C(=O)N(c1cccc(C)c1)C2=O`, the “activity change, negative = inhibition” value was inactive: 17.3%.
For `CCOc1c(OC(C)=O)ccc(/C=C/c2ccc3cccc(OC)c3n2)c1[N+](=O)[O-]`, the Potency was inconclusive: 23.1 µM [inhibitor, single point].
In the case of `COc1ccc(N2CC(C(=O)OCC(=O)Nc3cccc(C)c3C)CC2=O)cc1` (configuration not stated), the “activity change, negative = inhibition” value is reported as inactive: -3.3%.
In the case of `CC1(C)Cc2c(C#N)c(NCCN3CCOCC3)nc(-c3ccco3)c2CO1`, the “activity change, negative = inhibition” value is reported as inactive: -21.1%.
With `CN(C)CCCN(C(=O)c1ccc(S(=O)(=O)N2CCCC2)cc1)c1nc2ccc(Br)cc2s1` the Potency was inconclusive: 17.8 µM [inhibitor, single point].
For `CCOC(=O)C1=C(CC)Nc2ccccc2N=C1NC(=O)Nc1ccc(Cl)c(Cl)c1`, the Potency was inconclusive: 29.1 µM [inhibitor, single point].
With `COC(=O)c1ccccc1NC(=O)c1cccc(NC(=O)c2ccc(Br)o2)c1C` the Potency was inconclusive: 25.9 µM [inhibitor, single point].
In the case of `CC1(C)CC(=O)C2=C(C1)OC(/N=C/N1CCCC1)=C(C#N)C2c1ccccc1` (configuration not stated), the Potency is reported as inconclusive: 22.4 µM [activator, single point].
With `N#C/C(=C\c1c[nH]c2ccccc12)C(=O)Nc1ncc(Cc2ccc(Cl)cc2Cl)s1` the Potency was inconclusive: 11.2 µM [inhibitor, partial curve].
For `CCOC(=O)C1=C(Nc2ccc(C)cc2)CC(C)(O)C(C(=O)OCC)C1c1ccccc1` (configuration not stated), the “activity change, negative = inhibition” value was inactive: 2.87%.
In the case of `Cc1ccc(SCc2cc(=O)[nH]c(Nc3nc(C)c4ccc(C)cc4n3)n2)cc1`, the Potency is reported as inconclusive: 3.26 µM [inhibitor, partial curve, poor fit].
For `COc1c(Cl)ccc(Cl)c1C(=O)NCc1ccco1`, the “activity change, negative = inhibition” value was inactive: -23.9%.
In the case of `Cc1c(C(=O)NC2CCN(Cc3ccccc3)C2)oc2ccc(Br)cc12` (configuration not stated), the Potency is reported as inconclusive: 35.5 µM [inhibitor, single point].
With `COc1cccc(CN2C(=O)C3(SCC(=O)N3c3ccc(C)c(Cl)c3)c3ccccc32)c1` (configuration not stated) the Potency was inconclusive: 35.5 µM [inhibitor, single point].
In the case of `CC(=O)c1c(C)[nH]c(C(=O)N(C)C(c2ccccc2)c2ccccc2)c1C`, the Potency is reported as inconclusive: 12.6 µM [inhibitor, partial curve, poor fit].
In the case of `N#Cc1cc2c(nc1SCC(=O)O)CCCC2`, the “activity change, negative = inhibition” value is reported as inactive: 5.71%.
For `COC(=O)N/N=C/C1=CCC2CC1C2(C)C` (configuration not stated), the “activity change, negative = inhibition” value was inactive: -14.4%.
For `O=c1[nH]cnc2c1sc1nc(-c3ccccc3)c3c(c12)CCCC3`, the “activity change, negative = inhibition” value was inactive: 0.655% [at 46.1 µM].
For `C=CCn1c(SCC(=O)c2cc(C)n(C(C)COC)c2C)nc2sc(C)c(C)c2c1=O` (configuration not stated), the Potency was active: 9.2 µM.
With `Cc1ccc(-c2nc3ncccc3o2)cc1NC(=O)c1ccccc1` the “activity change, negative = inhibition” value was inactive: 13.8% [at 46.1 µM].
In the case of `O=C(c1ccc2c(c1)ncn2C1CCCCCC1)N1CCC2(CC1)OCCO2`, the Potency is reported as inconclusive: 17.8 µM [inhibitor, single point].
In the case of `COc1ccc(CCNC(=O)COC(=O)/C=C/c2ccc3c(c2)OCO3)cc1`, the Potency is reported as inconclusive: 17.8 µM [activator, single point].
For `c1cnc2ccc(-c3ccc4ncccc4c3)cc2c1`, the Potency was active: 4.47 µM.
In the case of `c1csc(CSc2nnc3sc4ccccc4n23)c1`, the “activity change, negative = inhibition” value is reported as inactive: 10.4%.
With `CCCC(=O)N1CCN(c2ccc(NC(=O)c3ccc4c(c3)OCCO4)cc2)CC1` the “activity change, negative = inhibition” value was inactive: 6.94%.
For `O=C(CNc1cccc([N+](=O)[O-])c1)N1CCN(S(=O)(=O)c2ccc(Cl)cc2)CC1`, the “activity change, negative = inhibition” value was inactive: -10.7%.
For `Cc1ccccc1OCCC(=O)Nc1cccc(S(=O)(=O)Nc2ccccc2Cl)c1`, the Potency was inconclusive: 35.5 µM [inhibitor, single point].
In the case of `COC(=O)c1ccc(CSc2c(C(C)C)cnc3c2c(=O)n(C)c(=O)n3C)cc1`, the Potency is reported as inconclusive: 2.51 µM [inhibitor, full curve, poor fit].
With `Cc1ccc(N(C)C(=O)N2CCN(S(=O)(=O)c3ccc4ccccc4c3)CC2)cc1` the Potency was inconclusive: 14.6 µM [inhibitor, single point].
For `CC(=O)Cc1nsc(NC(=O)c2ccc(COc3cccc(C)c3)o2)n1`, the “activity change, negative = inhibition” value was inactive: 13% [at 46.1 µM].
With `O=C(CSc1nnc(NC(=O)c2cccc(Cl)c2)s1)NCC1CCCO1` (configuration not stated) the Potency was inconclusive: 2.82 µM [activator, full curve, poor fit].
For `C/C(=N\NS(=O)(=O)c1ccc(C)cc1)c1cccs1`, the “activity change, negative = inhibition” value was inactive: 8.23%.
For `O=C(NCCc1ccco1)C(=O)NCCC1CCCCN1S(=O)(=O)c1ccccc1` (configuration not stated), the Potency was inconclusive: 15.8 µM [inhibitor, single point].
For `COc1ccc(NC(=O)CCSc2nnnn2C)cc1`, the “activity change, negative = inhibition” value was inactive: 22.7%.
In the case of `O=C(CCCN1C(=O)c2ccccc2C1=O)NCCC1=CCCCC1`, the “activity change, negative = inhibition” value is reported as inactive: -4.37%.
In the case of `O=S(=O)(NCC(c1ccc2c(c1)OCO2)N1CCN(c2ccccc2)CC1)c1ccccc1` (configuration not stated), the Potency is reported as inconclusive: 28.2 µM [inhibitor, single point].
For `O=C(/C=C/c1ccccc1)OCN1C(=O)c2ccccc2C1=O`, the Potency was inconclusive: 8.91 µM [activator, partial curve, poor fit].
With `O=C(NC1CCCCC1)c1ccc(CSc2nc3cccnc3n2Cc2cccc(F)c2)cc1` the Potency was inconclusive: 0.562 µM [inhibitor, full curve, poor fit].
For `O=C(NCc1ccco1)c1ccc2c(c1)N(Cc1ccccc1)C(=O)c1ccccc1S2`, the Potency was inconclusive: 12.6 µM [inhibitor, partial curve, poor fit].
With `COc1ccc2nc(N3C(=O)/C(=C/c4ccc(Cl)cc4)NC3=S)sc2c1` the Potency was inconclusive: 4.47 µM [inhibitor, single point].
For `CCC1CCCCN1C(=S)Nc1ccc(S(=O)(=O)Nc2ncccn2)cc1` (configuration not stated), the Potency was inconclusive: 3.55 µM [activator, single point].
For `COC(=O)c1scc(-c2ccc(C)cc2)c1S(=O)(=O)N1CCN(c2ccc(F)cc2)CC1`, the Potency was inconclusive: 8.91 µM [inhibitor, partial curve].
With `CCN(CC)C(=S)SCC(=O)NC12CC3CC(CC(C3)C1)C2` the Potency was inconclusive: 20 µM [inhibitor, single point].
With `CCCCOc1ccccc1C1NC(=O)NC(C)=C1C(=O)OCc1ccco1` (configuration not stated) the Potency was inconclusive: 25.9 µM [inhibitor, single point].
With `CCn1cc(C(=O)OCC(=O)Nc2cc(S(=O)(=O)N(C)C)ccc2C)c(=O)c2ccc(C)nc21` the Potency was inconclusive: 1.64 µM [inhibitor, partial curve, poor fit].
For `CC(C)(C)C1CCc2c(sc3nc(SCC(N)=O)nc(N)c23)C1` (configuration not stated), the Potency was inconclusive: 17.8 µM [inhibitor, single point].
